# Cell number after 72 h of treatment

From a melanoma drug combination screen (doi:10.1371/journal.pone.0140310); values rounded.

Drug key:
JZL184: O=C(Oc1ccc([N+](=O)[O-])cc1)N1CCC(C(O)(c2ccc3c(c2)OCO3)c2ccc3c(c2)OCO3)CC1 at 5 µM
KU-55933: O=c1cc(-c2cccc3c2Sc2ccccc2S3)oc(N2CCOCC2)c1 at 5 µM
cisplatin: N.N.[Cl][Pt][Cl] at 8 µM
enzastaurin: Cn1cc(C2=C(c3cn(C4CCN(Cc5ccccn5)CC4)c4ccccc34)C(=O)NC2=O)c2ccccc21 at 4 µM
lapatinib: CS(=O)(=O)CCNCc1ccc(-c2ccc3ncnc(Nc4ccc(OCc5cccc(F)c5)c(Cl)c4)c3c2)o1 at 4 µM
vincristine: CC[C@]1(O)C[C@H]2CN(CCc3c([nH]c4ccccc34)[C@@](C(=O)OC)(c3cc4c(cc3OC)N(C=O)[C@H]3[C@@](O)(C(=O)OC)[C@H](OC(C)=O)[C@]5(CC)C=CCN6CC[C@]43[C@@H]65)C2)C1 at 0.0005 µM
PF-562271: CN(c1ncccc1CNc1nc(Nc2ccc3c(c2)CC(=O)N3)ncc1C(F)(F)F)S(C)(=O)=O at 0.4 µM
gemcitabine: Nc1ccn([C@@H]2O[C@H](CO)[C@@H](O)C2(F)F)c(=O)n1 at 0.002 µM
lestaurtinib: C[C@]12O[C@H](C[C@]1(O)CO)n1c3ccccc3c3c4c(c5c6ccccc6n2c5c31)CNC4=O at 0.02 µM

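Human melanoma cells were exposed to a pair of drugs for 72 h in 1,536-well plates and read by automated microscopy after fixing and staining. The read-out is cell count (nuclei) in % of the DMSO control; lower values mean stronger growth inhibition or killing. Every drug was used at one fixed concentration, the higher of two screened. These are primary screening values without error estimates.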 An unselected part of the screen is shown.

Combination,WM3619,COLO 792,WM451Lu,COLO 829,COLO 800,C32
vincristine + enzastaurin,59.2,61.1,46.3,47.2,68.3,76.3
KU-55933 + cisplatin,68.2,87.7,90.5,83.7,125,84.4
enzastaurin + JZL184,89.0,97.2,93.7,87.4,102,95.2
enzastaurin + lestaurtinib,95.4,51.1,66.2,72.8,111,85.8
cisplatin + lestaurtinib,49.0,46.8,78.1,94.3,35.2,84.0
lestaurtinib + KU-55933,66.6,66.3,80.9,82.6,77.1,86.7
vincristine + JZL184,39.3,93.4,28.8,83.4,88.4,55.1
lapatinib + PF-562271,74.6,50.7,53.8,56.3,79.9,71.9
enzastaurin + cisplatin,104,97.0,123,89.2,110,115
gemcitabine + vincristine,53.9,58.1,51.1,55.5,27.7,93.5
lestaurtinib + vincristine,56.0,53.0,38.4,71.6,88.8,93.2
enzastaurin + lapatinib,74.7,68.6,82.4,80.7,82.4,68.9
vincristine + PF-562271,79.7,63.6,39.3,66.3,67.2,59.1
PF-562271 + lestaurtinib,71.6,47.0,65.5,76.4,67.8,90.7
cisplatin + vincristine,95.1,71.3,48.4,97.4,81.3,85.4
lapatinib + lestaurtinib,54.6,70.6,89.7,64.3,49.8,93.2
JZL184 + lapatinib,66.6,64.0,87.6,64.1,51.7,83.5
PF-562271 + enzastaurin,86.6,54.1,55.8,69.4,50.2,67.0
enzastaurin + KU-55933,125,72.2,82.2,77.8,110,97.2
KU-55933 + gemcitabine,40.2,88.4,65.3,63.8,30.3,102
lestaurtinib + JZL184,89.5,52.4,87.5,92.4,82.4,98.9
gemcitabine + PF-562271,53.5,50.5,43.5,32.4,73.2,60.5
cisplatin + PF-562271,84.5,64.5,51.7,83.9,78.2,57.9
lapatinib + KU-55933,70.2,84.3,86.8,103,44.5,94.4
lapatinib + vincristine,34.4,20.4,34.7,29.2,27.5,42.6
vincristine + KU-55933,40.8,84.8,29.0,56.9,102,62.0
lapatinib + cisplatin,80.4,89.3,109,97.2,93.2,119
cisplatin + gemcitabine,59.1,85.8,58.1,74.7,46.6,99.0
gemcitabine + enzastaurin,55.9,94.7,77.8,63.7,155,81.7
JZL184 + KU-55933,61.6,100,86.8,92.8,126,95.3
gemcitabine + lapatinib,66.3,43.3,45.3,44.4,68.2,85.6
gemcitabine + lestaurtinib,34.9,22.5,33.9,51.1,24.1,64.9
PF-562271 + KU-55933,91.8,84.4,90.3,74.7,68.3,75.1
JZL184 + gemcitabine,36.0,73.7,43.5,36.4,19.7,89.5
JZL184 + cisplatin,80.9,84.8,103,77.8,85.6,86.9

The last 4 entries again:

Combination	WM3619	COLO 792	WM451Lu	COLO 829	COLO 800	C32
gemcitabine + lestaurtinib	34.9	22.5	33.9	51.1	24.1	64.9
PF-562271 + KU-55933	91.8	84.4	90.3	74.7	68.3	75.1
JZL184 + gemcitabine	36.0	73.7	43.5	36.4	19.7	89.5
JZL184 + cisplatin	80.9	84.8	103	77.8	85.6	86.9